Assay results published in the supplement of paper PMC4604168 (melanoma cell lines).
This is one part of the list. Many values rest on one well or one pass, so single values are uncertain.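 The apoptosis fraction was the count of cleaved-PARP antibody-stained nuclei relative to all DNA-stained nuclei, imaged in 1,536-well plates. Screening doses were set so most cells survived, and baseline and induced cleaved-PARP levels vary greatly across cell lines.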

Legend:
Assay in all cases: cleaved PARP positive nuclei fraction relative to DMSO control; melanoma cells; higher = more apoptosis
Settings in all cases: library dose: low library concentration; 72 h
MZ2-MEL = system: MZ2-MEL
MeWo = system: MeWo
RPMI7951 = system: RPMI7951
RVH-421 = system: RVH-421
SkMel28 = system: SkMel28
SkMel2 = system: SkMel2
SkMel30 = system: SkMel30
SkMel5 = system: SkMel5
UACC257 = system: UACC257
UACC62 = system: UACC62

Structure (SMILES) | cleaved PARP positive nuclei fraction (MZ2-MEL) [%] | cleaved PARP positive nuclei fraction (MeWo) [%] | cleaved PARP positive nuclei fraction (RPMI7951) [%] | cleaved PARP positive nuclei fraction (RVH-421) [%] | cleaved PARP positive nuclei fraction (SkMel28) [%] | cleaved PARP positive nuclei fraction (SkMel2) [%] | cleaved PARP positive nuclei fraction (SkMel30) [%] | cleaved PARP positive nuclei fraction (SkMel5) [%] | cleaved PARP positive nuclei fraction (UACC257) [%] | cleaved PARP positive nuclei fraction (UACC62) [%]
COc1ccc(C2=N[C@@H](c3ccc(Cl)cc3)[C@@H](c3ccc(Cl)cc3)N2C(=O)N2CCNC(=O)C2)c(OC(C)C)c1 [Nutlin-3] + COc1cc(Nc2ncc(F)c(Nc3ccc4c(n3)NC(=O)C(C)(C)O4)n2)cc(OC)c1OC [Tamatinib] (first compound 0.1 µM, partner dose 0.4 µM) | 107 | 105 | 134 | 85.9 | 120 | 140 | 94.6 | 132 | 132 | 265
C[C@]1(O)C[C@@H](c2nc(-c3ccc4ccc(-c5ccccc5)nc4c3)c3c(N)nccn32)C1 + O=C(O)c1ccc(-c2c[nH]c3ncc(-c4ccccc4)cc23)cc1C1CCCC1 [GSK650394] (first compound 0.4 µM, partner dose 0.16 µM) | 293 | 72.8 | 43.4 | 79 | 53.2 | 210 | 67.4 | 224 | 146 | 120
C[C@@H](N)c1ccc(C(=O)Nc2ccnc3[nH]ccc23)cc1 + Cn1cncc1[C@@](N)(c1ccc(Cl)cc1)c1ccc2c(c1)c(-c1cccc(Cl)c1)cc(=O)n2C [tipifarnib] (first compound 0.4 µM, partner dose 0.01 µM) | 97.2 | 334 | 87.2 | 151 | 70.2 | 162 | 66.4 | 58.4 | 83 | 44.6
CS(=O)(=O)c1ccc(C(=O)Nc2ccc(Cl)c(-c3ccccn3)c2)c(Cl)c1 [vismodegib] + OCCn1cc(-c2cnc3nnn(Cc4ccc5ncccc5c4)c3n2)cn1 [PF04217903] (first compound 1 µM, partner dose 1 µM) | 175 | 78 | 111 | 121 | 64.6 | 118 | 66.6 | 65.6 | 185 | 31
CC1(C)CCC(c2ccc(Cl)cc2)=C(CN2CCN(c3ccc(C(=O)NS(=O)(=O)c4ccc(N[C@H](CCN5CCOCC5)CSc5ccccc5)c(S(=O)(=O)C(F)(F)F)c4)cc3)CC2)C1 + OCCn1cc(-c2cnc3nnn(Cc4ccc5ncccc5c4)c3n2)cn1 [PF04217903] (first compound 0.4 µM, partner dose 1 µM) | 293 | 138 | 147 | 184 | 64.3 | 137 | 93.1 | 45.8 | 62.9 | 75.1
CC(=O)O[C@@]12CO[C@@H]1C[C@H](O)[C@@]1(C)C(=O)[C@H](O)C3=C(C)[C@@H](OC(=O)[C@H](O)[C@@H](NC(=O)OC(C)(C)C)c4ccccc4)C[C@@](O)([C@@H](OC(=O)c4ccccc4)[C@H]21)C3(C)C [Docetaxel] + COc1ccc(COc2ccc(Cc3cnc(N)nc3N)cc2OC)cc1 [GW2580] (first compound 0.0001 µM, partner dose 1 µM) | 905 | 589 | 164 | 128 | 242 | 605 | 292 | 511 | 1000 | 324
C[C@@H](N)c1ccc(C(=O)Nc2ccnc3[nH]ccc23)cc1 + CCCCCCCCCCCC1=C(O)C(=O)C=C(O)C1=O [Embelin] (first compound 0.4 µM, partner dose 1.2 µM) | 186 | 114 | 161 | 176 | 137 | 137 | 145 | 107 | 56.7 | 175
NC1(c2ccc(-c3nc4ccn5c(=O)[nH]nc5c4cc3-c3ccccc3)cc2)CCC1 + O=C1NC(=O)/C(=C/c2ccc(-c3ccc(F)cc3O)o2)S1 [AS252424] (first compound 0.4 µM, partner dose 1 µM) | 136 | 72.9 | 53.9 | 181 | 250 | 22.1 | 68.6 | 67.8 | 484 | 274
Cn1cnc2c(F)c(Nc3ccc(Br)cc3Cl)c(C(=O)NOCCO)cc21 [selumetinib] + COc1ccc(COc2ccc(Cc3cnc(N)nc3N)cc2OC)cc1 [GW2580] (first compound 0.015 µM, partner dose 1 µM) | 228 | 122 | 53.8 | 101 | 124 | 171 | 95.1 | 58.9 | 102 | 150
NC(=O)c1ccc(N(C(N)=O)c2c(F)cccc2F)nc1-c1ccc(F)cc1F + O=C(Nc1cccc(Cl)c1)Nc1ncc(CCNc2ncnc3ccsc23)s1 [SNS314] (first compound 0.4 µM, partner dose 0.0008 µM) | 95 | 55.2 | 101 | 124 | 133 | 134 | 55.1 | 59.9 | 112 | 120
COc1ccc(C2=N[C@@H](c3ccc(Cl)cc3)[C@@H](c3ccc(Cl)cc3)N2C(=O)N2CCNC(=O)C2)c(OC(C)C)c1 [Nutlin-3] + COC(=O)c1sccc1S(=O)(=O)Nc1ccc(Nc2ccccc2)cc1OC [GSK0660] (first compound 0.1 µM, partner dose 1 µM) | 41.3 | 85.4 | 38.5 | 153 | 104 | 115 | 70 | 78.1 | 190 | 116
COc1ccc(C2=N[C@@H](c3ccc(Cl)cc3)[C@@H](c3ccc(Cl)cc3)N2C(=O)N2CCNC(=O)C2)c(OC(C)C)c1 [Nutlin-3] + CCN(CC)CCCCNc1ncc2cc(-c3cc(OC)cc(OC)c3)c(NC(=O)NC(C)(C)C)nc2n1 [PD173074] (first compound 0.1 µM, partner dose 0.1 µM) | 161 | 163 | 32.6 | 224 | 230 | 123 | 125 | 92.9 | 63.4 | 187
C[C@]1(O)C[C@@H](c2nc(-c3ccc4ccc(-c5ccccc5)nc4c3)c3c(N)nccn32)C1 + N#Cc1c(O)c2c(-c3ccc(-c4ccccc4O)cc3)csc2[nH]c1=O [A769662] (first compound 0.4 µM, partner dose 2 µM) | 197 | 39.1 | 28.4 | 77 | 138 | 138 | 129 | 75.3 | 89.3 | 169
NC1(c2ccc(-c3nc4ccn5c(=O)[nH]nc5c4cc3-c3ccccc3)cc2)CCC1 + CN(NC(=O)CC(=O)NN(C)C(=S)c1ccccc1)C(=S)c1ccccc1 [STA4783] (first compound 0.4 µM, partner dose 0.006 µM) | 156 | 61.2 | 53.5 | 99.7 | 157 | 16.4 | 67.2 | 211 | 32.6 | 85.2
CC1(C)CCC(c2ccc(Cl)cc2)=C(CN2CCN(c3ccc(C(=O)NS(=O)(=O)c4ccc(N[C@H](CCN5CCOCC5)CSc5ccccc5)c(S(=O)(=O)C(F)(F)F)c4)cc3)CC2)C1 + C=CCn1c(=O)c2cnc(Nc3ccc(N4CCN(C)CC4)cc3)nc2n1-c1cccc(C(C)(C)O)n1 [MK1775] (first compound 0.4 µM, partner dose 0.02 µM) | 261 | 564 | 212 | 126 | 33.7 | 196 | 237 | 39.7 | 135 | 88.1
CCCCCCCCc1ccc(CCC(N)(CO)CO)cc1 [fingolimod] + COc1cc(Nc2ncc(F)c(Nc3ccc4c(n3)NC(=O)C(C)(C)O4)n2)cc(OC)c1OC [Tamatinib] (first compound 2 µM, partner dose 0.4 µM) | 90.1 | 116 | 57.1 | 97.9 | 306 | 83.6 | 73.7 | 62.6 | 180 | 194
CC(=O)O[C@@]12CO[C@@H]1C[C@H](O)[C@@]1(C)C(=O)[C@H](O)C3=C(C)[C@@H](OC(=O)[C@H](O)[C@@H](NC(=O)OC(C)(C)C)c4ccccc4)C[C@@](O)([C@@H](OC(=O)c4ccccc4)[C@H]21)C3(C)C [Docetaxel] + COc1cc(N2CCC(N3CCN(C)CC3)CC2)ccc1Nc1ncc(Cl)c(Nc2ccccc2S(=O)(=O)C(C)C)n1 [NVP-TAE684] (first compound 0.0001 µM, partner dose 0.08 µM) | 587 | 492 | 191 | 348 | 1130 | 644 | 113 | 190 | 859 | 521
CN(c1ncccc1CNc1nc(Nc2ccc3c(c2)CC(=O)N3)ncc1C(F)(F)F)S(C)(=O)=O + COc1ccc(-c2ccc3c(N4CCOCC4)nc(N4C[C@@H](C)O[C@@H](C)C4)nc3n2)cc1CO [KU0063794] (first compound 0.08 µM, partner dose 0.02 µM) | 223 | 66.2 | 362 | 112 | 107 | 105 | 93.1 | 99.7 | 124 | 108
CCCCCCCCc1ccc(CCC(N)(CO)CO)cc1 [fingolimod] + Cn1cc(/C=C2\C(=O)Nc3cccnc32)c2ccccc21 [GW441756] (first compound 2 µM, partner dose 0.4 µM) | 113 | 38.7 | 77 | 97.2 | 143 | 27.3 | 67.8 | 89.2 | 648 | 158
CN(c1ncccc1CNc1nc(Nc2ccc3c(c2)CC(=O)N3)ncc1C(F)(F)F)S(C)(=O)=O + Cc1cc([N+](=O)[O-])ccc1NS(=O)(=O)c1cc(Cl)ccc1Cl [FH535] (first compound 0.08 µM, partner dose 1 µM) | 165 | 57.5 | 89.8 | 97.8 | 245 | 117 | 279 | 191 | 101 | 115
C[C@]1(O)C[C@@H](c2nc(-c3ccc4ccc(-c5ccccc5)nc4c3)c3c(N)nccn32)C1 + Oc1nc(-c2ccc(C(F)(F)F)cc2)nc2c1CSCC2 [XAV939] (first compound 0.4 µM, partner dose 2 µM) | 79.7 | 77 | 95.9 | 118 | 155 | 102 | 53.5 | 102 | 113 | 109
CC(=O)O[C@@]12CO[C@@H]1C[C@H](O)[C@@]1(C)C(=O)[C@H](O)C3=C(C)[C@@H](OC(=O)[C@H](O)[C@@H](NC(=O)OC(C)(C)C)c4ccccc4)C[C@@](O)([C@@H](OC(=O)c4ccccc4)[C@H]21)C3(C)C [Docetaxel] + Cn1cc(/C=C2\C(=O)Nc3cccnc32)c2ccccc21 [GW441756] (first compound 0.0001 µM, partner dose 0.4 µM) | 703 | 809 | 236 | 164 | 706 | 589 | 321 | 97.3 | 469 | 444

Whole records as entered above. Order of values: cleaved PARP positive nuclei fraction (MZ2-MEL) [%]	cleaved PARP positive nuclei fraction (MeWo) [%]	cleaved PARP positive nuclei fraction (RPMI7951) [%]	cleaved PARP positive nuclei fraction (RVH-421) [%]	cleaved PARP positive nuclei fraction (SkMel28) [%]	cleaved PARP positive nuclei fraction (SkMel2) [%]	cleaved PARP positive nuclei fraction (SkMel30) [%]	cleaved PARP positive nuclei fraction (SkMel5) [%]	cleaved PARP positive nuclei fraction (UACC257) [%]	cleaved PARP positive nuclei fraction (UACC62) [%]
CS(=O)(=O)c1ccc(C(=O)Nc2ccc(Cl)c(-c3ccccn3)c2)c(Cl)c1 [vismodegib] + OCCn1cc(-c2cnc3nnn(Cc4ccc5ncccc5c4)c3n2)cn1 [PF04217903] (first compound 1 µM, partner dose 1 µM) is listed as 175	78	111	121	64.6	118	66.6	65.6	185	31
COc1ccc(C2=N[C@@H](c3ccc(Cl)cc3)[C@@H](c3ccc(Cl)cc3)N2C(=O)N2CCNC(=O)C2)c(OC(C)C)c1 [Nutlin-3] + CCN(CC)CCCCNc1ncc2cc(-c3cc(OC)cc(OC)c3)c(NC(=O)NC(C)(C)C)nc2n1 [PD173074] (first compound 0.1 µM, partner dose 0.1 µM) is listed as 161	163	32.6	224	230	123	125	92.9	63.4	187
